Results deposited as PubChem BioAssay AID1671195 (Yale University, 2021).
The whole screen tested about 22,000 reagents; shown is a random part of them. About 1,510 of all reagents (6.9%) were called active. 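Active includes knockdowns raising or lowering LDL uptake; positive z-scores mean more uptake, negative mean less.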 Entries without a mark were called inactive. Reagent sequences are not shown.

Assay: 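Regulators of LDL receptor activity judged by labelled LDL uptake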 (primary screen)
Cells: human Huh7 hepatoma cells
Reagent: siRNA pool against human genes, 18 nM
Duration: about 2 to 2.5 days of knockdown, then 8 h LDL uptake
Treatment: DiI-labelled LDL at 30 µg/ml for 8 h, in lipoprotein-deficient serum medium
Read-out: 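Per-cell DiI-LDL intensity by automated imaging; well means scaled to the plate median and given as a robust z-score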
Direction: robust z-score: higher = more LDL uptake after knockdown
Call rule: 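Active when two or more replicates show a robust z-score above 2 or below -2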

The first 6 entries, to show the layout:
target gene	PubChem SID	robust z-score, replicate 1	robust z-score, replicate 2	robust z-score, replicate 3
LOC200292 (retired record)	SID442900079	-1.05	-0.549	-0.534
GP2	SID442892415	0.803	0.796	-1.09
RPL10	SID442903688	-2.07	-0.211	-1.79
DDX3Y	SID442885699	0.609	1.86	1.73
GPALPP1	SID442886884	0.245	1.77	1.1
TMEM252	SID442885318	1.18	1.47	2.04

Results, repeating the preview:
target gene	PubChem SID	robust z-score, replicate 1	robust z-score, replicate 2	robust z-score, replicate 3
LOC200292 (retired record)	SID442900079	-1.05	-0.549	-0.534
GP2	SID442892415	0.803	0.796	-1.09
RPL10	SID442903688	-2.07	-0.211	-1.79
DDX3Y	SID442885699	0.609	1.86	1.73
GPALPP1	SID442886884	0.245	1.77	1.1
TMEM252	SID442885318	1.18	1.47	2.04
YIPF4	SID442896445	-0.462	-0.683	0.323
TULP3	SID442904515	-1.67	-1.63	-1.74
ARL4C	SID442900059	-0.496	-0.855	-0.767
TM6SF2	SID442887906	1.09	0.287	1.08
BHMT	SID442895957	-0.368	-0.0772	-0.227
ZNF114	SID442902623	-0.694	-1.29	-1.36
WDR36	SID442900531	-0.705	-0.79	-0.822
CAMKV	SID442884855	1.33	2.93	1.24
GUCY1B2	SID442883519	1.33 (active)	4.03	2.85
RAVER1	SID442887322	1.27	0.568	0.978
NBR1	SID442888752	0.414	0.251	1.34
RB1	SID442896129	-0.421	0.35	-0.653
MICU2	SID442886062	1.28	1.3	1.25
IRF2BP2	SID442904706	-1.8	-1.74	-1.91
LOC441020 (retired record)	SID442900519	-0.634	-0.657	-1.02
VHLL	SID442895269	0.217	-1.03	0.363
BTBD7	SID442890796	1.8	-0.194	-0.503
GAD2	SID442896548	-0.993	0.227	-0.0879
CLCA4	SID442894448	0.0541	-0.67	0.422
LOC441109 (retired record)	SID442894975	0.172	-0.588	0.0577
SNX15	SID442901901	-0.393	-0.129	-2.42
SEC14L3	SID442889362	0.603	0.473	0.64
PREX1	SID442903698	-1.73	-2.26	-0.0987
BLNK	SID442889205	1.11	0.218	0.457
DTD2	SID442888028	0.318	0.935	1.13
SFI1	SID442883848	2 (active)	3.04	1.69
LOC440691 (retired record)	SID442900772	-0.787	-0.808	-0.821
TMEM74B	SID442890127	0.543	0.809	0.0282
CSNK1G3	SID442901160	-0.584	-1.4	-0.596
AMPD2	SID442894887	0.0526	-0.382	-0.000724
KLHL18	SID442883127	5.21 (active)	4.51	5.31
RNF122	SID442894454	0.0552	0.0445	-0.297
PNKP	SID442899988	-0.944	-0.567	-0.575
GYS1	SID442885737	1.82	0.629	1.71
TMEM62	SID442884659	1.7	2.6	1.82
DOCK10	SID442883572	2.53 (active)	2.46	2.96
NANOS2	SID442883634	2.41 (active)	2.87	2.32
LOC440000 (retired record)	SID442897892	-0.104	-0.4	-0.804
LHCGR	SID442903112	-1.25	-0.889	-1.52
C2orf42	SID442888063	0.37	1.02	0.975
GHRL	SID442886576	1.21	1.16	0.987
LOC388760 (retired record)	SID442885061	1.79	1.64	1.67
MEX3A	SID442885434	2.47	0.762	1.32
POLD2	SID442891435	0.283	0.158	0.42
NTNG1	SID442897760	-0.604	-0.252	-0.409
LOC392347 (retired record)	SID442904223	-1.79	-1.63	-1.17
SCN10A	SID442892010	0.196	-0.0626	0.527
SNX16	SID442893203	0.171	0.00701	0.053
TMEM242	SID442904364	-1.12	-2.08	-1.6
MX2	SID442885173	2.19	1.26	1.47
YKT6	SID442888382	0.787	0.137	1.27
LYST	SID442890588	-0.00949	-0.0806	1.28
FNDC3B	SID442904449	-1.77	-1.57	-1.6
CALR3	SID442895275	-0.204	-0.203	-0.051
XRN1	SID442902403	-1.89	-1.11	-0.203
SUFU	SID442895168	0.273	-0.568	-0.132
C8orf17	SID442898010	-0.301	-0.403	-0.651
HNRNPA1P56	SID442892292	0.665	0.0136	-0.122
HUNK	SID442903932	-1.64	-1.1	-1.57
ARMH4	SID442892995	0.452	-0.519	0.365
DTX4	SID442892917	-0.048	0.344	0.0364
LOC284397 (retired record)	SID442887172	1.09	0.791	1.02
